At least one compound was matched to its structure with a doubt left. Numbered stars: 1 amine (or outer) side, 2 acyl side, 3 side chain; on linkers, the order of the positions; unused ones are H or OH. Peptide text beside a SMILES is read from it. CO = O=C([*:1])[*:2]
Test system: 13D11
Test: Effect of common protease inhibitors on the antibody-catalyzed reaction
Format: biochemical, mouse
Conditions: inhibitor concentrations sufficient to abolish the respective proteases
Protocol: Extensive purification of 13D11 was carried out. Monoclonal antibodies were purified from ascites using standard procedures of lipid extraction and ammonium sulfate precipitation followed by column chromatography on protein A, DEAE, Mono Q, and finally Alkyl Superose (Pharmacia, Piscataway, N.J.). Finally, nine common inhibitors of known proteases were tested at concentrations sufficient to completely abolish all for their effect on the antibody-catalyzed reaction.

## CC(C)[C@H](NC(=O)[C@H](CCCNC(=N)N)NC(=O)N[C@@H](Cc1ccccc1)C(=O)O)C(=O)N[C@H](C=O)CCCNC(=N)N [antipain] ({Phe-CO}-Arg-Val-Arg-aldehyde)
  effect on amidolytic activity of 13D11: essentially unaffected
